{"source": "the supplement of paper PMC10032668", "test_in_all_cases": "PRISMA enrichment of interactor (LFQ) in peptide spot vs all other peptide spots (log2 fold change); higher = stronger / more specific binding of the interactor to the peptide", "key": {"ALDH4A1, P30038": {"target": "ALDH4A1, P30038", "procedure": "(§1)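 PRISMA: 15-aa overlapping tiles (offset 8 aa) of 60 microproteins, plus SOS1/GLUT1 control peptides, were spot-synthesized on cellulose membranes in triplicate. Membranes were incubated with benzonase-treated HEK293T lysate, and bound proteins were identified by LC-MS/MS with LFQ. Enrichment is the log2 fold change of each protein in one spot versus all other spots. Only interactors passing the significance cutoff are listed.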"}, "ARF1, P84077": {"target": "ARF1, P84077", "procedure": "as §1"}, "ARGLU1, Q9NWB6": {"target": "ARGLU1, Q9NWB6", "procedure": "as §1"}, "ATRN, O75882": {"target": "ATRN, O75882", "procedure": "as §1"}, "BANF1, O75531": {"target": "BANF1, O75531", "procedure": "as §1"}, "BCOR, Q6W2J9": {"target": "BCOR, Q6W2J9", "procedure": "as §1"}, "BOLA2, Q9H3K6": {"target": "BOLA2, Q9H3K6", "procedure": "as §1"}, "CALD1, Q05682": {"target": "CALD1, Q05682", "procedure": "as §1"}, "CCAR2, Q8N163": {"target": "CCAR2, Q8N163", "procedure": "as §1"}, "CDCA7L, Q96GN5": {"target": "CDCA7L, Q96GN5", "procedure": "as §1"}, "CEBPZ, Q03701": {"target": "CEBPZ, Q03701", "procedure": "as §1"}, "CSDE1, O75534": {"target": "CSDE1, O75534", "procedure": "as §1"}, "DIS3, Q9Y2L1": {"target": "DIS3, Q9Y2L1", "procedure": "as §1"}, "DYNLRB1, Q9NP97": {"target": "DYNLRB1, Q9NP97", "procedure": "as §1"}, "ENAH, Q8N8S7": {"target": "ENAH, Q8N8S7", "procedure": "as §1"}, "EXOC3, O60645": {"target": "EXOC3, O60645", "procedure": "as §1"}, "FAM133B, Q5BKY9": {"target": "FAM133B, Q5BKY9", "procedure": "as §1"}, "GTF2E2, P29084": {"target": "GTF2E2, P29084", "procedure": "as §1"}, "HK2, P52789": {"target": "HK2, P52789", "procedure": "as §1"}, "IPO9, Q96P70": {"target": "IPO9, Q96P70", "procedure": "as §1"}, "KNOP1, Q1ED39": {"target": "KNOP1, Q1ED39", "procedure": "as §1"}, "KTN1, Q86UP2": {"target": "KTN1, Q86UP2", "procedure": "as §1"}, "MAIP1, Q8WWC4": {"target": "MAIP1, Q8WWC4", "procedure": "as §1"}, "MRPL22, Q9NWU5": {"target": "MRPL22, Q9NWU5", "procedure": "as §1"}, "MRPS6, P82932": {"target": "MRPS6, P82932", "procedure": "as §1"}, "MTOR, P42345": {"target": "MTOR, P42345", "procedure": "as §1"}, "MTREX, P42285": {"target": "MTREX, P42285", "procedure": "as §1"}, "NUP188, Q5SRE5": {"target": "NUP188, Q5SRE5", "procedure": "as §1"}, "NUP58, Q9BVL2": {"target": "NUP58, Q9BVL2", "procedure": "as §1"}, "NUP93, Q8N1F7": {"target": "NUP93, Q8N1F7", "procedure": "as §1"}}, "note": "This is one part of the list. The list holds hits alone, and they repeat only in part."}
{"binder": "GPAWWVVSEVLAEQR", "note": "[ABR]", "values": [{"measurement": "PRISMA enrichment of interactor (log2)", "setting": "ALDH4A1, P30038", "value": 6.34}, {"measurement": "PRISMA enrichment of interactor (log2)", "setting": "ARF1, P84077", "value": 4.62}, {"measurement": "PRISMA enrichment of interactor (log2)", "setting": "ARGLU1, Q9NWB6", "value": 5.07}, {"measurement": "PRISMA enrichment of interactor (log2)", "setting": "ATRN, O75882", "value": 5.81}, {"measurement": "PRISMA enrichment of interactor (log2)", "setting": "BANF1, O75531", "value": 3.78}, {"measurement": "PRISMA enrichment of interactor (log2)", "setting": "BCOR, Q6W2J9", "value": 6.42}, {"measurement": "PRISMA enrichment of interactor (log2)", "setting": "BOLA2, Q9H3K6", "value": 4.96}, {"measurement": "PRISMA enrichment of interactor (log2)", "setting": "CALD1, Q05682", "value": 4.98}, {"measurement": "PRISMA enrichment of interactor (log2)", "setting": "CCAR2, Q8N163", "value": 4.61}, {"measurement": "PRISMA enrichment of interactor (log2)", "setting": "CDCA7L, Q96GN5", "value": 12.2}, {"measurement": "PRISMA enrichment of interactor (log2)", "setting": "CEBPZ, Q03701", "value": 6.96}, {"measurement": "PRISMA enrichment of interactor (log2)", "setting": "CSDE1, O75534", "value": 4.56}, {"measurement": "PRISMA enrichment of interactor (log2)", "setting": "DIS3, Q9Y2L1", "value": 5.35}, {"measurement": "PRISMA enrichment of interactor (log2)", "setting": "DYNLRB1, Q9NP97", "value": 5.18}, {"measurement": "PRISMA enrichment of interactor (log2)", "setting": "ENAH, Q8N8S7", "value": 7.18}, {"measurement": "PRISMA enrichment of interactor (log2)", "setting": "EXOC3, O60645", "value": 5.38}, {"measurement": "PRISMA enrichment of interactor (log2)", "setting": "FAM133B, Q5BKY9", "value": 4.43}, {"measurement": "PRISMA enrichment of interactor (log2)", "setting": "GTF2E2, P29084", "value": 5.3}, {"measurement": "PRISMA enrichment of interactor (log2)", "setting": "HK2, P52789", "value": 5.19}, {"measurement": "PRISMA enrichment of interactor (log2)", "setting": "IPO9, Q96P70", "value": 4.7}, {"measurement": "PRISMA enrichment of interactor (log2)", "setting": "KNOP1, Q1ED39", "value": 5.62}, {"measurement": "PRISMA enrichment of interactor (log2)", "setting": "KTN1, Q86UP2", "value": 4.69}, {"measurement": "PRISMA enrichment of interactor (log2)", "setting": "MAIP1, Q8WWC4", "value": 4.16}, {"measurement": "PRISMA enrichment of interactor (log2)", "setting": "MRPL22, Q9NWU5", "value": 7.76}, {"measurement": "PRISMA enrichment of interactor (log2)", "setting": "MRPS6, P82932", "value": 5.32}, {"measurement": "PRISMA enrichment of interactor (log2)", "setting": "MTOR, P42345", "value": 7.55}, {"measurement": "PRISMA enrichment of interactor (log2)", "setting": "MTREX, P42285", "value": 4.06}, {"measurement": "PRISMA enrichment of interactor (log2)", "setting": "NUP188, Q5SRE5", "value": 5.15}, {"measurement": "PRISMA enrichment of interactor (log2)", "setting": "NUP58, Q9BVL2", "value": 4.57}, {"measurement": "PRISMA enrichment of interactor (log2)", "setting": "NUP93, Q8N1F7", "value": 4.73}]}
